# The list shows only some results of the screen, not a fair sample: it is rich in T/C values a quarter to a half above the control, in often repeated tests (any T/C) and in doses without a T/C. Other doses and runs of a compound stand elsewhere. T/C gives the treated animals as a percentage of the vehicle group. Some entries give survivors of the animals treated and no T/C: the source files T/C as zero there, which appears to mark a toxic dose or a test without result, not a measured value. Some doses without a T/C left all or most animals alive at the check, yet need not have been tolerated: survival well below the control is almost never listed, so the zero probably covers shortened survival too. Survivors were counted at the toxicity check, usually on the fifth day, unless a day is given; later deaths do not show. Schedules are NCI's codes, taken here to give the interval after Q, in days (D) or hours (H), and the number of doses after X. Some schedules carry Z or #; the key to these is not given. Where survival is the endpoint, the PubChem record calls one and a half times the control and up active, and a quarter to a half above the control has no call in these data; cut-offs in other NCI protocols can differ.
# Test system: L1210 leukemia ip in BDF1 mice, survival T/C
# Assay: NCI In Vivo Anticancer Drug Screen. Data for tumor model L1210 Leukemia (intraperitoneal) in B6D2F1 (BDF1) mice
# Conditions: T/C endpoint: mean survival time, higher T/C = longer survival
# [1] = dose: 400.0 mg/kg/injection, schedule: Q01DX009 (ip), vehicle: saline with Tween-80
# [2] = dose: 200.0 mg/kg/injection, schedule: Q01DX009 (ip), vehicle: saline with Tween-80
# [3] = dose: 50.0 mg/kg/injection, schedule: Q01DX001 (ip), vehicle: saline
# [4] = dose: 100.0 mg/kg/injection, schedule: Q01DX001 (ip), vehicle: saline
# [5] = dose: 200.0 mg/kg/injection, schedule: Q01DX001 (ip), vehicle: saline
# [6] = dose: 400.0 mg/kg/injection, schedule: Q04DX002 (ip), vehicle: saline with Tween-80
# [7] = dose: 400.0 mg/kg/injection, schedule: Q01DX001 (ip), vehicle: saline
smiles,measurement,setting,value
Cc1cccc(/C=N/N(C)C(N)=S)n1,survivor count,"dose: 400.0 mg/kg/injection, schedule: Q01DX001 (ip), vehicle: carboxymethylcellulose (CMC)",1 of 6
CCOC(=O)CN1C(=O)CN=C(c2ccccn2)c2cc(Cl)ccc21,survivor count,[1],5 of 6
Oc1ccc(-c2cc(O)c(-c3ccc(O)cc3)cc2O)cc1,survivor count,"dose: 200.0 mg/kg/injection, schedule: Q01DX009 (ip), vehicle: saline",3 of 6
same,survivor count,"dose: 400.0 mg/kg/injection, schedule: Q01DX009 (ip), vehicle: saline",0 of 6
O=c1c2nccnc2[nH]n1-c1ccccc1,survivor count,"dose: 12.5 mg/kg/injection, schedule: Q04DX003 (ip), vehicle: Klucel (hydroxypropylcellulose) (HPC)",6 of 6
CC[n+]1cccc(NC(=O)c2ccc(NC(=O)c3ccc(C(=O)Nc4ccc(C(=O)Nc5ccc[n+](CC)c5)cc4)cc3)cc2)c1,T/C,"dose: 0.5 mg/kg/injection, schedule: Q01DX009 (ip), vehicle: saline",127 % of control
same,T/C,"dose: 1.0 mg/kg/injection, schedule: Q01DX009 (ip), vehicle: saline, evaluated on day 30",130 % of control
same,T/C,"dose: 1.0 mg/kg/injection, schedule: Q01DX009 (ip), vehicle: saline, run until all animals had died",135 % of control
same,T/C,"dose: 2.0 mg/kg/injection, schedule: Q01DX009 (ip), vehicle: saline, evaluated on day 30",139 % of control
same,T/C,"dose: 2.0 mg/kg/injection, schedule: Q01DX009 (ip), vehicle: saline, run until all animals had died",141 % of control
same,T/C,"dose: 8.0 mg/kg/injection, schedule: Q01DX001 (ip), vehicle: saline, evaluated on day 30",126 % of control
same,T/C,"dose: 8.0 mg/kg/injection, schedule: Q01DX001 (ip), vehicle: saline, run until all animals had died",130 % of control
same,T/C,"dose: 8.0 mg/kg/injection, schedule: Q01DX009 (ip), vehicle: saline",149 % of control
same,survivor count,"dose: 10.0 mg/kg/injection, schedule: Q01DX Z (ip), vehicle: carboxymethylcellulose (CMC)",6 of 6
same,T/C,"dose: 16.0 mg/kg/injection, schedule: Q01DX001 (ip), vehicle: saline, evaluated on day 30",126 % of control
same,T/C,"dose: 16.0 mg/kg/injection, schedule: Q01DX001 (ip), vehicle: saline, run until all animals had died",139 % of control
same,T/C,"dose: 32.0 mg/kg/injection, schedule: Q01DX001 (ip), vehicle: saline",145 % of control
same,survivor count,"dose: 32.0 mg/kg/injection, schedule: Q01DX009 (ip), vehicle: saline",6 of 6
same,survivor count,"dose: 128.0 mg/kg/injection, schedule: Q01DX001 (ip), vehicle: saline",6 of 6
COc1ccc2c(c1)CCC2=O,survivor count,[2],3 of 6
same,survivor count,"dose: 400.0 mg/kg/injection, schedule: Q04DX003 (ip), vehicle: Klucel (hydroxypropylcellulose) (HPC)",0 of 6
CCN(CC)CCN1C(=O)c2ccc3c4c(ccc(c24)C1=O)C(=O)N(CCN(CC)CC)C3=O,survivor count,"dose: 25.0 mg/kg/injection, schedule: Q01DX001 (ip), vehicle: saline",4 of 6
same,survivor count,[3],6 of 6
same,survivor count,[4],2 of 6
same,survivor count,[5],2 of 6
CC(NCCOc1ccccc1)c1ccccc1 (stereo not drawn),survivor count,[6],0 of 3
CC(CN1c2ccccc2Sc2ccccc21)[N+](C)(C)C (stereo not drawn),survivor count,[5],0 of 4
same,survivor count,[7],0 of 4
CCN(CC)CCCNc1ccnc2cc(Cl)ccc12,survivor count,[5],0 of 4
same,survivor count,[7],0 of 4
O=C(Nc1ccccc1Cl)Oc1ccc(Cl)cc1Cc1ccccc1,survivor count,[1],3 of 6
CNC(=O)c1cc(C(=O)NC)c[n+](Cc2c(Cl)cccc2Cl)c1,survivor count,"dose: 300.0 mg/kg/injection, schedule: Q01DX001 (ip), vehicle: saline",3 of 6
CN(N=O)C(=O)NN(C)C(=O)N(C)N=O,T/C,"dose: 100.0 mg/kg/injection, schedule: Q01DX001 (ip), vehicle: carboxymethylcellulose (CMC)",125 % of control
same,survivor count,"dose: 500.0 mg/kg/injection, schedule: Q01DX001 (ip), vehicle: carboxymethylcellulose (CMC)",0 of 6
same,survivor count,"dose: 600.0 mg/kg/injection, schedule: Q01DX001 (ip), vehicle: carboxymethylcellulose (CMC)",3 of 6
same,survivor count,"dose: 800.0 mg/kg/injection, schedule: Q01DX001 (ip), vehicle: carboxymethylcellulose (CMC)",0 of 6
same,survivor count,"dose: 1000.0 mg/kg/injection, schedule: Q01DX001 (ip), vehicle: carboxymethylcellulose (CMC)",0 of 6
CC(=O)OC1CC(OC2C(O)CC(OC3C(O)CC(OC4CCC5(C)C(CCC6C5CC(O)C5(C)C(C7=CC(=O)OC7)CCC65O)C4)OC3C)OC2C)OC(C)C1O (stereo not drawn) (tested in a mixture with another compound),survivor count,"dose: 400.0 mg/kg/injection, schedule: Q01DX001 (sc), vehicle: steroid suspending solution",1 of 6
Cc1ccc(NC(=O)COc2cc(Cl)c(Cl)cc2Cl)cc1C,survivor count,"dose: 100.0 mg/kg/injection, schedule: Q01DX009 (ip), vehicle: saline with Tween-80",6 of 6
same,survivor count,[2],6 of 6
Nc1ncnc2nc(SC3OC(CO)C(O)C3O)[nH]c12 (stereo not drawn),survivor count,"dose: 75.0 mg/kg/injection, schedule: Q01DX001 (ip), vehicle: saline",3 of 6
COCC(=O)Oc1cc(-c2ccc(C)cc2C)c(OC(=O)COC)c(-c2ccc(C)cc2C)c1,survivor count,"dose: 75.0 mg/kg/injection, schedule: Q04DX003 (ip), vehicle: Klucel (hydroxypropylcellulose) (HPC)",6 of 6
same,survivor count,"dose: 150.0 mg/kg/injection, schedule: Q04DX003 (ip), vehicle: Klucel (hydroxypropylcellulose) (HPC)",5 of 6
O=C(O)c1cc(-c2cccc(C(F)(F)F)c2)nc2c(C(F)(F)F)cccc12,survivor count,[2],2 of 6
same,survivor count,"dose: 400.0 mg/kg/injection, schedule: Q04DX003 (ip), vehicle: saline with Tween-80",0 of 6
CCC1(Sc2ncnc3nc[nH]c23)C(=O)NC(=O)NC1=O,T/C,"dose: 12.5 mg/kg/injection, schedule: Q01DX015 (ip), vehicle: alkali diluted with saline",126 % of control
same,T/C,"dose: 25.0 mg/kg/injection, schedule: Q01DX015 (ip), vehicle: alkali diluted with saline",134 % of control
same,T/C,"dose: 50.0 mg/kg/injection, schedule: Q01DX015 (ip), vehicle: alkali diluted with saline",140 % of control
same,T/C,"dose: 100.0 mg/kg/injection, schedule: Q01DX015 (ip), vehicle: alkali diluted with saline",145 % of control
same,survivor count,"dose: 800.0 mg/kg/injection, schedule: Q01DX001 (ip), vehicle: alkali diluted with saline",2 of 6
O=C(CN1CCCCC1Cl)c1ccccc1 (stereo not drawn),survivor count,[5],0 of 6
same,survivor count,"dose: 200.0 mg/kg/injection, schedule: Q04DX003 (ip), vehicle: saline",2 of 6
same,survivor count,[7],0 of 6
same,survivor count,"dose: 400.0 mg/kg/injection, schedule: Q04DX003 (ip), vehicle: saline",0 of 6
COc1ccc(C(=O)NC(=S)Nc2ccccc2F)cc1,survivor count,"dose: 400.0 mg/kg/injection, schedule: Q01DX009 (ip), vehicle: Klucel (hydroxypropylcellulose) (HPC)",6 of 6
CN(C)c1ccc(/C=C/C=N/N=C/c2ccccc2O)cc1,survivor count,"dose: 300.0 mg/kg/injection, schedule: Q01DX001 (ip), vehicle: other",6 of 6
c1ccc(C(c2ccccc2)[Si](c2ccccc2)(c2ccccc2)c2ccccc2)cc1,survivor count,[6],3 of 3
CCC1(c2ccccc2)NC(=O)NC1=O (stereo not drawn),survivor count,[1],1 of 6
CCCCc1c(C)nc(N)nc1N,survivor count,[3],3 of 6
same,survivor count,"dose: 100.0 mg/kg/injection, schedule: Q01DX001 (ip), vehicle: Klucel (hydroxypropylcellulose) (HPC)",0 of 6
same,survivor count,[4],0 of 6
same,survivor count,"dose: 200.0 mg/kg/injection, schedule: Q01DX001 (ip), vehicle: Klucel (hydroxypropylcellulose) (HPC)",0 of 6
same,survivor count,"dose: 400.0 mg/kg/injection, schedule: Q01DX001 (ip), vehicle: Klucel (hydroxypropylcellulose) (HPC)",0 of 6

# From PubChem BioAssay AID248 (DTP/NCI, 2004)
